Data: article PMC12280211
No constants are given. Whether binding was seen depends on the method and setting. In cells and extracts the contact can be indirect. Some results given as binding are weak or reduced against the parent protein; the word gives no strength.

Target: T1, phosphorylated TANK-binding kinase 1 (phospho-Ser172) (human (endogenous in MDA-MB-468)) (UniProt Q9UHD2)
T1 sequence (chain, phosphoserine at 172): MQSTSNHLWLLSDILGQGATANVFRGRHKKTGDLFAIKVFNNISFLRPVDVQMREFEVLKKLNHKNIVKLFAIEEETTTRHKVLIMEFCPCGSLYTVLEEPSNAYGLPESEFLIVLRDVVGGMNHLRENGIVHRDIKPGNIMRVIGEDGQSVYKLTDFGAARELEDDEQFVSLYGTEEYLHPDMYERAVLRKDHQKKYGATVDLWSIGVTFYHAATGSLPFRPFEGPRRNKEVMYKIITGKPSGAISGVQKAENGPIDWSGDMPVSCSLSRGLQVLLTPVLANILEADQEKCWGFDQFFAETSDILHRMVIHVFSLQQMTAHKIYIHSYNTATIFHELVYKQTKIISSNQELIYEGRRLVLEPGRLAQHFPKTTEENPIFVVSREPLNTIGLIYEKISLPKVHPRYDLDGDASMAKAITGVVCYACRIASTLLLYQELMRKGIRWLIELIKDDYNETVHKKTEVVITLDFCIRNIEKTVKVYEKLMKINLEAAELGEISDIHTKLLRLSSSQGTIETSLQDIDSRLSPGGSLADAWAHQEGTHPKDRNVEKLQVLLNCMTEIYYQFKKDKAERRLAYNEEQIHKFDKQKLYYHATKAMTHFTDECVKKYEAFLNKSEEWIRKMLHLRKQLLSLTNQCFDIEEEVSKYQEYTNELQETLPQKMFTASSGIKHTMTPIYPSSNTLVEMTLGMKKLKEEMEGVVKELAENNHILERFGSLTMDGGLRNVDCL
Assay: co-IP; pTBK1 precipitated with a phospho-TBK1 (Ser172) antibody on Dynabeads protein A from MDA-MB-468 lysates (50 mM Tris pH 8, 150 mM NaCl, 1% Triton, 1 mM DTT, 1 mM MgCl2), 2 h at 4 °C, Western blot; rabbit IgG as control; cells treated with SAR405, 8 Gy X-rays ± SAR405 or taxol ± SAR405

## selective autophagy receptor p62 (from UniProt Q13501 1-440)
  binding: binds
